Assay results taken from the supplement of paper PMC11732987, “Enantioselective OTUD7B fragment discovery through chemoproteomics screening and high-throughput optimisation” (Communications Chemistry, 2025).
The other results are listed elsewhere or left out. The data scatter; read single values as rough.

Chains of the proteins cited; added tags and fusions are not shown. Lines headed by an entry give the natural chain unless they say otherwise; changes in a name come on top. Residues count along the entry.
UniProt Q6P6B7: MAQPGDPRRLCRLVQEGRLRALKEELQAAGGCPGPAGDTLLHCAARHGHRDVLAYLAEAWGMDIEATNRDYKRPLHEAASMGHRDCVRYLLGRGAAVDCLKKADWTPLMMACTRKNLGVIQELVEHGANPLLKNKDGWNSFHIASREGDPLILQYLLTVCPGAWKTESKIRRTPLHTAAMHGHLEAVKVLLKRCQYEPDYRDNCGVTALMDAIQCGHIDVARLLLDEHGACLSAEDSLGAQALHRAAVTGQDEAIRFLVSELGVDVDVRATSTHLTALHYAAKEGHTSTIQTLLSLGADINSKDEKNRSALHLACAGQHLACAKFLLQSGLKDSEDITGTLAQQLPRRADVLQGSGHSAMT
UniProt Q6ZW76, 360-380: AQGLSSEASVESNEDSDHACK
UniProt Q68DC2: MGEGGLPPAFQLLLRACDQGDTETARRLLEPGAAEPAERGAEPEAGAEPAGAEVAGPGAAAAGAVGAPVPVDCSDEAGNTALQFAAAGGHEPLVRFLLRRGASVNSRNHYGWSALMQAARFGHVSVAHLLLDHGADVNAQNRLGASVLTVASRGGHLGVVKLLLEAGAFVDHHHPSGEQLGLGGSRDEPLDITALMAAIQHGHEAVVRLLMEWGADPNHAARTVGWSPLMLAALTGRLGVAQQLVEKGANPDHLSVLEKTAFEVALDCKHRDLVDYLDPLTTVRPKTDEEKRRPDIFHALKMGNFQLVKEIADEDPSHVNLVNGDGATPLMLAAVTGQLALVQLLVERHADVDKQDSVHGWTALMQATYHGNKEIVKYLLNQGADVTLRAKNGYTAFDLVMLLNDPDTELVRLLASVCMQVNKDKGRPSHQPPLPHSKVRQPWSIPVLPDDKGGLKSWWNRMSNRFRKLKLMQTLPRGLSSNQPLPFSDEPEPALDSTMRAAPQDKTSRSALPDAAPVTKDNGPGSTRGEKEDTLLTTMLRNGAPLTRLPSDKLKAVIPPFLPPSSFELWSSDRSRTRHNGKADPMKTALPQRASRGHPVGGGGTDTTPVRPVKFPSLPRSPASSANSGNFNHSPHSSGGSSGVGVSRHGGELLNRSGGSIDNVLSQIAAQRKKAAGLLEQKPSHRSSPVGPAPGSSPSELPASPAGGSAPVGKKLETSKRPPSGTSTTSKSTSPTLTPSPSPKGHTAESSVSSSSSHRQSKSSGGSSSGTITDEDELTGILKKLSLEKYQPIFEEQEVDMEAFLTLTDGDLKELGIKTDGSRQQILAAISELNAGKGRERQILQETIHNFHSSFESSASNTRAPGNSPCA
UniProt Q8N3C0: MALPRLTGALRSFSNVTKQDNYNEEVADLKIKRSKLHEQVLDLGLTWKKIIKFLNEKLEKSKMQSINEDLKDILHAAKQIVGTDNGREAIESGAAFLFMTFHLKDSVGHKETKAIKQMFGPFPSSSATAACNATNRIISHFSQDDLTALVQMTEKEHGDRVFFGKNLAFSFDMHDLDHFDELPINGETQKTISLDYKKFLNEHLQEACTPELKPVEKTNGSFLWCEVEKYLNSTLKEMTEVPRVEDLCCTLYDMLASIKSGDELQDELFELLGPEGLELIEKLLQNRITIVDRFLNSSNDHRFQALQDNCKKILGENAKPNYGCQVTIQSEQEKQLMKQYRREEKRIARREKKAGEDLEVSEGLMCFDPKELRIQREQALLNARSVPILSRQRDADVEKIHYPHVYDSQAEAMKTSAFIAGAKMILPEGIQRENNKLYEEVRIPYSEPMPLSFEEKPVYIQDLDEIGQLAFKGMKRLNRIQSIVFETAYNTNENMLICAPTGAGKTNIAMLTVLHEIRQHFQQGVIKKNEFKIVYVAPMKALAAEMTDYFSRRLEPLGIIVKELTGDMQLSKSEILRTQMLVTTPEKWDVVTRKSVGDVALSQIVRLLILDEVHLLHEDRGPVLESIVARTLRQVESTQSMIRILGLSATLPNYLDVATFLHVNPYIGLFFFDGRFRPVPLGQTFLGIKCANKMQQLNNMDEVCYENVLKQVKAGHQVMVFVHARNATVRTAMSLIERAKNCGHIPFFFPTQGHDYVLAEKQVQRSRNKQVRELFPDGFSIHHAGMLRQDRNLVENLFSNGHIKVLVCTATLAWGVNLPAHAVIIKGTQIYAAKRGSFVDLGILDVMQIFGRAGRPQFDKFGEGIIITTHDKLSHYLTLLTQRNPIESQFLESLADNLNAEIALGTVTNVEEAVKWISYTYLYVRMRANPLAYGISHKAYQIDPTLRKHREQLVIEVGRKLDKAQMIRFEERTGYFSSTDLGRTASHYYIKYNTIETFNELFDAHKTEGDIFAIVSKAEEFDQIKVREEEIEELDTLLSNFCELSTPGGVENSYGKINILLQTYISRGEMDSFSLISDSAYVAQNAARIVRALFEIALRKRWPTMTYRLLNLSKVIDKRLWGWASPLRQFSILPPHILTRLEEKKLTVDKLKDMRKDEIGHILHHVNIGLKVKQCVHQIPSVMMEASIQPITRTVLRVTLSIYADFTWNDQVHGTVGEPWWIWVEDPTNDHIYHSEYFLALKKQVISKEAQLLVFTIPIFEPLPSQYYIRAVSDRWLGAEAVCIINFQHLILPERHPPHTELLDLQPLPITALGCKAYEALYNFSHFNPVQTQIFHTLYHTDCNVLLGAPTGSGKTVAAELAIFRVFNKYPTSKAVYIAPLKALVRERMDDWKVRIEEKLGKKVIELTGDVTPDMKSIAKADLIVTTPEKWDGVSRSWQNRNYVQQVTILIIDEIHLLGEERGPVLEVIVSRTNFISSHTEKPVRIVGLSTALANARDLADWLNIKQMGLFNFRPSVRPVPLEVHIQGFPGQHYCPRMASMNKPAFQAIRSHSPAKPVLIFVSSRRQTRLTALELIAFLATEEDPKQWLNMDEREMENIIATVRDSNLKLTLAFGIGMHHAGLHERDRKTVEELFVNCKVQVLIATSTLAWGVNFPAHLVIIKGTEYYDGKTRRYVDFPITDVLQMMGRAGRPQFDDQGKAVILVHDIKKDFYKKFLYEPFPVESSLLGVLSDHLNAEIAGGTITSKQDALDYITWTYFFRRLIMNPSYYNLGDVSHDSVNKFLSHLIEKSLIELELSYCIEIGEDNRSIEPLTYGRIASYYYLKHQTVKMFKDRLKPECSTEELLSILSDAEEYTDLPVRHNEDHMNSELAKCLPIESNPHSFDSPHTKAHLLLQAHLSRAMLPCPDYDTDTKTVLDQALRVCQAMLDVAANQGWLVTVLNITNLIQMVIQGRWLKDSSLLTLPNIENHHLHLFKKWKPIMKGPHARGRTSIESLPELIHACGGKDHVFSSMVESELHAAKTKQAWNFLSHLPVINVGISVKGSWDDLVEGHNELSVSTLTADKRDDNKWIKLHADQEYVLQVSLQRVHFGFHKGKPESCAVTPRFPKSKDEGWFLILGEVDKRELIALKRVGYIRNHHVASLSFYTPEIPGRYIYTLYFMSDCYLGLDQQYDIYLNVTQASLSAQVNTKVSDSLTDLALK
UniProt Q52LW3: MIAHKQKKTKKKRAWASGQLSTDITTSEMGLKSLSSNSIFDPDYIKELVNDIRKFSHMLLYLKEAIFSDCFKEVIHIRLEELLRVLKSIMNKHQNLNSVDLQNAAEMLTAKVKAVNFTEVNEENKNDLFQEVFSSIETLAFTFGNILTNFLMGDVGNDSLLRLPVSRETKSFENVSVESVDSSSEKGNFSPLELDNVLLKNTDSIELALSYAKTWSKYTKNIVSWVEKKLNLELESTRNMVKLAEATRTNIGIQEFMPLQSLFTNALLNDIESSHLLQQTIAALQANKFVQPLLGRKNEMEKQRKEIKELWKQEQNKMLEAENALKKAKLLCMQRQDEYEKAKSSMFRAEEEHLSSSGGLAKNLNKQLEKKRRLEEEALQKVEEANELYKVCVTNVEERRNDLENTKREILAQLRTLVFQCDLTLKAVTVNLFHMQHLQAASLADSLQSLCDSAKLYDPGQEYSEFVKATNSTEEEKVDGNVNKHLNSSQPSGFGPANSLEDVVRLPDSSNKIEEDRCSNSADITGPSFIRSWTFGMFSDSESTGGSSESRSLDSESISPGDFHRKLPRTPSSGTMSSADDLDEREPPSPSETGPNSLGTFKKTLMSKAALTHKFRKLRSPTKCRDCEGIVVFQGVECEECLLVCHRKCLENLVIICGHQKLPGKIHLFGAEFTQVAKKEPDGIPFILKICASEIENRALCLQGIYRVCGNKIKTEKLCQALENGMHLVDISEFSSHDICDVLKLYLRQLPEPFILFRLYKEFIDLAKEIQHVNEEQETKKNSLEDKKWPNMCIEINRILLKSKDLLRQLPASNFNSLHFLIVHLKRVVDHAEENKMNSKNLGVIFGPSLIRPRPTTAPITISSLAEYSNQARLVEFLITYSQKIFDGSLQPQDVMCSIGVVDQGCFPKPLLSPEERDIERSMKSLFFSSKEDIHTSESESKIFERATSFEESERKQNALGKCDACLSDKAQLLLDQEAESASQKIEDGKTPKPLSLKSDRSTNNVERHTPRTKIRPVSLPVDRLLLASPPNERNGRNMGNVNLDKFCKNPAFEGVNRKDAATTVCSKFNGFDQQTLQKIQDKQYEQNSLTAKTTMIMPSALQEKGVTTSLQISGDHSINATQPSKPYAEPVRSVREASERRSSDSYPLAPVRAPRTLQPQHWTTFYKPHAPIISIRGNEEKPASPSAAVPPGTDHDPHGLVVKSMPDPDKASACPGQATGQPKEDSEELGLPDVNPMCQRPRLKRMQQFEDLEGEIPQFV
UniProt Q8NB46: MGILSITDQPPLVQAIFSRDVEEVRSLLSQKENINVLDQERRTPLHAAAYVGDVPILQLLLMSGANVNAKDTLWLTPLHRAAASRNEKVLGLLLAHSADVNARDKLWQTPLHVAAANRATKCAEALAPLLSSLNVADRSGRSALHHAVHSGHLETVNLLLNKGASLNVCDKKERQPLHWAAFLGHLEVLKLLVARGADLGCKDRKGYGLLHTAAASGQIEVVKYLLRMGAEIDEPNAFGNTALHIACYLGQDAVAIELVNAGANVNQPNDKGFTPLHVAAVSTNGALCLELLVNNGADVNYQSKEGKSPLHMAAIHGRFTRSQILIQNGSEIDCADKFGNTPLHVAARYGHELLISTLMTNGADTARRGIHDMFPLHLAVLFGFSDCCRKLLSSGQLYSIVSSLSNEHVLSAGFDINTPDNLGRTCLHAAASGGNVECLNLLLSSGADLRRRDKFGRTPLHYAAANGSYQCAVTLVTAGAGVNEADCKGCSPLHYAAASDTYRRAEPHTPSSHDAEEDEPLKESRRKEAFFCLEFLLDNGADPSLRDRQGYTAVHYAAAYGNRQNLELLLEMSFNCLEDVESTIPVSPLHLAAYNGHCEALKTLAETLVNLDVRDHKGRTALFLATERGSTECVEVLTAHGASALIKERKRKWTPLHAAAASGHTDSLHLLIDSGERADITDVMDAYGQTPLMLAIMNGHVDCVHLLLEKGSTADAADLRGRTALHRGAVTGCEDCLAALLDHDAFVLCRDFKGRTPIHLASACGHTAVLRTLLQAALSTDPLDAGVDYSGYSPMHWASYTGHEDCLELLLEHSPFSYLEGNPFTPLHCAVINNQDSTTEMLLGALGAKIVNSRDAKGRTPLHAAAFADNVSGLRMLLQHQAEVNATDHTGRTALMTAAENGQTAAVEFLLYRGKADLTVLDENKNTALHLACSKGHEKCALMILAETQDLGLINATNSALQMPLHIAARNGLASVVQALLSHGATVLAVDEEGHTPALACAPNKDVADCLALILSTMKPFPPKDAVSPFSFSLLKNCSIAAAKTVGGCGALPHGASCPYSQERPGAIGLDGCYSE
UniProt P05067: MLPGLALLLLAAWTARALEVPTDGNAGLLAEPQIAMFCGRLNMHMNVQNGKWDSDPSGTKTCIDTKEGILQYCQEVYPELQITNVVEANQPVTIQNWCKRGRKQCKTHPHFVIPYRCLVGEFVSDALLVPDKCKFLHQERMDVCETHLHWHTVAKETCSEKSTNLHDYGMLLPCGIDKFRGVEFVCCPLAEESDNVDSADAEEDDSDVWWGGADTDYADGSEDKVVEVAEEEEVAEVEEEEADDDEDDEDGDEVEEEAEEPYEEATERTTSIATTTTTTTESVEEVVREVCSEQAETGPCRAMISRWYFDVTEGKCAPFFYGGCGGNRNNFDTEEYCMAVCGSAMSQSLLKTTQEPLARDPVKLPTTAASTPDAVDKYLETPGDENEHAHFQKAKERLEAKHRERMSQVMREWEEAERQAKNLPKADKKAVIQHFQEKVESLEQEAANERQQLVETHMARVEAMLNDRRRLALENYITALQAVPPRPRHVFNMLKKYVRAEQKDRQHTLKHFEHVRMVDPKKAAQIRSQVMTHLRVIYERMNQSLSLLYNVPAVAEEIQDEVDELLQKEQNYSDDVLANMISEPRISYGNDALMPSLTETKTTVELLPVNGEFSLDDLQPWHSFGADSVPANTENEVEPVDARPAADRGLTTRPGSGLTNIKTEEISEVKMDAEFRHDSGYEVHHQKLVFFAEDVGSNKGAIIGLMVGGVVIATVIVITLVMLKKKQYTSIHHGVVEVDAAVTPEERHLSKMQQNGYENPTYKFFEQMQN

Assays:
[1] = compound: ClCC(=O)N[C@@H]1CCCc2ccccc12; assay: log2 mean competition ratio of IA-DTB cysteine labelling (DMSO/compound) (log2 ratio); higher = stronger cysteine engagement by compound; conditions: treatment time: 4 h, cell line lysate: HEK293T
Procedure: (§1)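 IA-DTB competitive cysteine chemoproteomics in HEK293T RIPA lysate. Lysates were treated with compound 29 or 30 at 50 or 200 µM for 4 h, then IA-DTB (500 µM, 1 h), trypsin-digested, NeutrAvidin-enriched and analysed by diaPASEF. Competition ratio = intensity DMSO / intensity compound (n=4 treated, n=64 DMSO); binding: mean log2 CR ≥ 1 and p ≤ 0.05 plus QC filters. Target is the cysteine site.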

[2] = compound: ClCC(=O)N[C@H]1CCCc2ccccc12; assay: as above; conditions: treatment time: 4 h, cell line lysate: HEK293T
Procedure: as §1

| Target | log2 mean competition ratio ([1]; 50 µM) | log2 mean competition ratio ([1]; 200 µM) | log2 mean competition ratio ([2]; 50 µM) | log2 mean competition ratio ([2]; 200 µM) |
| --- | --- | --- | --- | --- |
| ANKRD16 C99 (UniProt Q6P6B7) | 0.0641 | -0.0259 | -0.174 | 0.305 |
| ANKS3 C379 (UniProt Q6ZW76) | 0.385 | 0.0363 | -0.0738 | 0.275 |
| ANKS6 C17 (UniProt Q68DC2) | 0.166 | -0.224 | -0.156 | 0.0411 |
| ASCC3 C366 (UniProt Q8N3C0) | -0.198 | -0.118 | -0.214 | -0.192 |
| ANKRD11 C646 (UniProt Q6UB99) | 0.0958 | 0.161 | -0.591 | -0.104 |
| ASMTL C130 (UniProt O95671) | 0.805 | -0.00615 | 1.01 | -0.171 |
| ARHGAP29 C1066 (UniProt Q52LW3) | -0.13 | 0.274 | 0.183 | 0.577 |
| APAF1 C761 (UniProt O14727) | 0.0627 | -0.0557 | -0.427 | 0.0186 |
| ASIC1 C497 | 0.245 | 0.0895 | 0.177 | 0.0587 |
| ANKRD52 C633 (UniProt Q8NB46) | 0.327 | 0.0497 | -0.338 | -0.389 |
| ARHGAP29 C518 (UniProt Q52LW3) | 0.00785 | -0.278 | 0.142 | 0.0818 |
| ARHGEF39 C10 | 0.0889 | 0.611 | 0.147 | 0.469 |
| ANKRD17 C1690 (UniProt O75179) | -0.301 | -0.179 | 0.143 | 0.0958 |
| APP C174 (UniProt P05067) | 0.346 | -0.302 | 0.857 | 0.187 |
| ARPC2 C120 (UniProt O15144) | 0.395 | 0.239 | -0.0769 | 0.443 |
| AS3MT C271 | 0.0713 | 0.00943 | -0.0406 | -0.000462 |
